# Measured values from the supplement of paper PMC11150407.
# In all, about 3,000 compounds went through this assay and about 45 (2%) showed an effect of 50% or more. Some of the results follow.
# System: MOLM1 and UCSD/AML1 (averaged)
# Test: cell viability relative to DMSO control (POC); higher = less growth inhibition
# Conditions: 1 µM; 72 h
# Experimental: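 Primary viability screen in the 3q26 EVI1-high AML cell lines MOLM1 and UCSD/AML1, compounds at 1 uM for 72 h. ATP CellTiter-Glo read-out given as percent viable over DMSO control (POC), averaged over duplicates. This mapping covers the TimTec NDL-3000 natural derivative library, whose compounds are identified by TimTec catalogue codes (ST...).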
row,Compound,cell viability [%]
1,COc1ccc2c(c1)c(CC(=O)N1CCN(C(=O)c3ccccc3)CC1)c(C)n2C(=O)c1ccc(Cl)cc1,96.3
2,COc1ccc(/C=C/C(=O)O)cc1COc1ccccc1,101
3,O=c1[nH]c(=O)n(Cc2ccccc2)c2c1C(C(F)(F)F)(C(F)(F)F)N=C(c1ccccn1)N2,92.1
4,CCOc1ccccc1C1C2CCCCC2(O)CCN1CC(=O)Nc1sc2c(c1C(=O)OC)CCCC2 (configuration not stated),105
5,COc1cc(C2Nc3ccccc3NC3=C2C(=O)CC(c2ccccc2Cl)C3)cc(OC)c1OC (configuration not stated),116
6,CCCc1[nH]nc2c1C(c1ccc(O)cc1)C(C#N)=C(N)O2 (configuration not stated),103
7,N#Cc1nc2ccccc2n1CC(=O)c1ccc2c(c1)OCCO2,89
8,COc1c(C)cccc1C(=O)Nc1ccc2oc(=O)ccc2c1,102
9,O=C(O)c1ccccc1-c1c2ccc(=O)c(Br)c-2oc2c(Br)c(O)ccc12,103
10,O=c1ccc2cc(Cl)c(O)cc2o1,92.8
11,CCOc1ccc(NC(=O)Cn2c(=O)cc(C(=O)NC)c3ccccc32)cc1,113
12,COc1ccc2c(c1)c(CC(=O)NC1CC1)c(C)n2C(=O)c1ccc(Cl)cc1,90.8
13,Cc1cc2c(C(C)C)c(O)c(O)c(C=NCc3cccnc3)c2c(O)c1-c1c(C)cc2c(C(C)C)c(O)c(O)c(C=NCc3cccnc3)c2c1O,86.2
14,CCN(CC)C(=O)c1cc(=O)n(CC(=O)Nc2ccc(F)cc2)c2ccccc12,98.4
15,Cc1cccc(/C=N/NC(=O)C(C)Nc2n[nH]c(=O)[nH]c2=O)c1 (configuration not stated),97.3
16,O=C(Nc1ncn(Cc2ccccc2F)n1)c1ccc2c(c1)OCO2,94.8
17,Cc1ccc2[nH]c(=O)c(CN(CC3CCCO3)S(=O)(=O)c3cccc4nsnc34)cc2c1 (configuration not stated),112
18,CC(=O)c1c(C)n(CCO)c2ccc(O)cc12,113
19,O=C1C2Cc3c([nH]c4ccccc34)C(c3ccccc3)N2C(=S)N1c1ccccc1 (configuration not stated),90.6
20,O=C(Cn1c(=O)cc(C(=O)NCc2ccccc2)c2ccccc21)Nc1ccccc1F,96.4
21,O=c1cc(-c2ccccc2)oc2cc(O)c(O)cc12,93.2
22,COC(=O)C(Cc1c[nH]c2ccccc12)NC(=O)COc1ccc2c(C)cc(=O)oc2c1 (configuration not stated),91.9
23,COC1OC(C)C(OCc2ccccc2)C(O)C1O (configuration not stated),96.9
24,CCCc1ccc(OCCn2c(C)c(C(=O)OCCOC)c3cc(O)c4ccccc4c32)cc1,67.3
25,COc1cc(Cc2nccc3cc(OC)c(OC)cc23)c(NC(=O)CSC2CCS(=O)(=O)C2)cc1OC (configuration not stated),100
26,O=C(COc1ccc2c(c1)CCCC2)c1ccc2c(c1)OCCO2,102
27,COc1cc(C(=O)NCCOc2ccc(C)cc2)cc(OC)c1OC,104

# Single entries from the results shown.
# Entry of COc1ccc2c(c1)c(CC(=O)N1CCN(C(=O)c3ccccc3)CC1)c(C)n2C(=O)c1ccc(Cl)cc1 under cell viability [%]: 96.3
# Entry of Cc1cc2c(C(C)C)c(O)c(O)c(C=NCc3cccnc3)c2c(O)c1-c1c(C)cc2c(C(C)C)c(O)c(O)c(C=NCc3cccnc3)c2c1O under cell viability [%]: 86.2
